Results are given in words; binding and its absence hold for the method and conditions named. In cells and extracts the contact can be indirect. Some results given as binding are weak or reduced against the parent protein; the word gives no strength. Tags and fused reporters may be left off the sequences shown.

Chains of the proteins cited; added tags and fusions are not shown. Lines headed by an entry give the natural chain unless they say otherwise; changes in a name come on top.
UniProt P15056: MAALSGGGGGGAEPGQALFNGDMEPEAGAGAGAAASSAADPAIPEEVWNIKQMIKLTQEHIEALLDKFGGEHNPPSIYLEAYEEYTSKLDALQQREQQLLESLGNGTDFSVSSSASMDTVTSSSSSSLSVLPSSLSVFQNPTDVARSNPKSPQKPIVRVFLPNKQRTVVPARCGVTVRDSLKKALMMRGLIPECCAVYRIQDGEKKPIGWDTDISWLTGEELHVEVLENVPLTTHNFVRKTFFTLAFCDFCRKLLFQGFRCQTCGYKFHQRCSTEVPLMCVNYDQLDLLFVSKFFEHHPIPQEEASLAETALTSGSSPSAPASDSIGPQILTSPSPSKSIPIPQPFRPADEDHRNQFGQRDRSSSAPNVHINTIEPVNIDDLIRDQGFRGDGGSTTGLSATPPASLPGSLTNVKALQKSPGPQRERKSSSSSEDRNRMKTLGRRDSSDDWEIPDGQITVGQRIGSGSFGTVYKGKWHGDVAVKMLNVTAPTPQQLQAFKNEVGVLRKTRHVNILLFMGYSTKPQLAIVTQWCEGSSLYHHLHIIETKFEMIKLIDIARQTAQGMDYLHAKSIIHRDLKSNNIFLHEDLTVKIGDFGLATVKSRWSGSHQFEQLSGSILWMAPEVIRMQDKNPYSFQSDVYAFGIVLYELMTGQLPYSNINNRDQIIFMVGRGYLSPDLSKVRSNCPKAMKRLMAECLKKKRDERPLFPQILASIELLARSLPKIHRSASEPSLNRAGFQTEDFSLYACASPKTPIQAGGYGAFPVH

The source of these data is patent US20120202233A1.

The assay deals with BRAF (wild type) (Homo sapiens (Human)) (UniProt P15056). Kind of assay: co-immunoprecipitation: FLAG-KSR IP, BRAF blot (FIG. 2G).

B1: A587F FLAG-KSR (enzyme, mouse, UniProt Q61097 1-873, looked up, not shown: small tags and cut ends)
chain: MDRAALRAAAMGEKKEGGGGGAAADGGAGAAVSRALQQCGQLQKLIDISIGSLRGLRTKCSVSNDLTQQEIRTLEAKLVKYICKQQQSKLSVTPSDRTAELNSYPRFSDWLYIFNVRPEVVQEIPQELTLDALLEMDEAKAKEMLRRWGASTEECSRLQQALTCLRKVTGLGGEHKMDSGWSSTDARDSSLGPPMDMLSSLGRAGASTQGPRSISVSALPASDSPVPGLSEGLSDSCIPLHTSGRLTPRALHSFITPPTTPQLRRHAKLKPPRTPPPPSRKVFQLLPSFPTLTRSKSHESQLGNRIDDVTPMKFELPHGSPQLVRRDIGLSVTHRFSTKSWLSQVCNVCQKSMIFGVKCKHCRLKCHNKCTKEAPACRITFLPLARLRRTESVPSDINNPVDRAAEPHFGTLPKALTKKEHPPAMNLDSSSNPSSTTSSTPSSPAPFLTSSNPSSATTPPNPSPGQRDSRFSFPDISACSQAAPLSSTADSTRLDDQPKTDVLGVHEAEAEEPEAGKSEAEDDEEDEVDDLPSSRRPWRGPISRKASQTSVYLQEWDIPFEQVELGEPIGQGRWGRVHRGRWHGEVFIRLLEMDGHNQDHLKLFKKEVMNYRQTRHENVVLFMGACMNPPHLAIITSFCKGRTLHSFVRDPKTSLDINKTRQIAQEIIKGMGYLHAKGIVHKDLKSKNVFYDNGKVVITDFGLFGISGVVREERRENQLKLSHDWLCYLAPEIVREMIPGRDEDQLPFSKAADVYAFGTVWYELQARDWPFKHQPAEALIWQIGSGEGVRRVLASVSLGKEVGEILSACWAFDLQERPSFSLLMDMLERLPKLNRRLSHPGHFWKSADINSSKVMPRFERFGLGTLESGNPKM
For the molecule B1, the binding result is reported as “binds”.
